Some entries share one result that the patent states for a list of compounds.
molecular target: T1, human histamine H3 receptor (Homo sapiens, UniProt Q9Y5N1); experiment: Histamine H3 functional antagonist assay ([35S]GTPγS SPA on membranes); type: biochemical; conditions: membranes of CHO K1 cells expressing human histamine H3; histamine 0.3 μM
T1 construct: expressed in transfected cells; host or cells: CHO K1 cells carrying the pSwitch regulatory plasmid, transfected with pGeneH3, induced with mifepristone; clone 3H3

Sequences of proteins named here, by UniProt entry; tags and fusion partners are left off. A change or cut given only in a name is not applied to a line headed by its entry.
UniProt Q9Y5N1: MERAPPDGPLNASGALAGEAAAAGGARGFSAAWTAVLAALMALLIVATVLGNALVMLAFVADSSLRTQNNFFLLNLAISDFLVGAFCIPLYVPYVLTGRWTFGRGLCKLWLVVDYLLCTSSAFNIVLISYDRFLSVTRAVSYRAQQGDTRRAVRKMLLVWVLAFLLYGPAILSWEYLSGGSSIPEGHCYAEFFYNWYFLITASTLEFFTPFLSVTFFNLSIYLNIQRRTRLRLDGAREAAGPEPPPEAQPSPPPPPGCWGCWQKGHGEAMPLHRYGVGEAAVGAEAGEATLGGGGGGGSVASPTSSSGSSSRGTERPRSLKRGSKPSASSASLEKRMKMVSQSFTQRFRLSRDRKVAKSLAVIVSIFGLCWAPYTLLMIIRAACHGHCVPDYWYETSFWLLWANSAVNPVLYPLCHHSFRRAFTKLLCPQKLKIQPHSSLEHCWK

Antagonism (pKb), > 6.5 pKb:
O=C(Nc1ccc2c(c1)CCN(C1CCC1)CC2)c1cccc(-c2ccncn2)c1 [Example 54, N-(3-Cyclobutyl-2,3,4,5-tetrahydro-1H-3-benzazepin-7-yl)-3-(4-pyrimidinyl)benzamide]
Cc1oc(-c2ccccc2)cc1C(=O)Nc1ccc2c(c1)CCN(C1CCC1)CC2 [Example 66, N-(3-Cyclobutyl-2,3,4,5-tetrahydro-1H-3-benzazepin-7-yl)-2-methyl-5-phenyl-3-furancarboxamide]
O=C(Nc1ccc2c(c1)CCN(C1CCC1)CC2)c1ccc(-c2ccncc2)cc1 [Example 97, N-(3-Cyclobutyl-2,3,4,5-tetrahydro-1H-3-benzazepin-7-yl)-4-(4-pyridinyl)benzamide]
O=C(Nc1ccc2c(c1)CCN(C1CCC1)CC2)N1CCC(Oc2ccc(F)cc2)CC1 [Example 168, N-(3-Cyclobutyl-2,3,4,5-tetrahydro-1H-3-benzazepin-7-yl)-4-[(4-fluorophenyl)oxy]-1-piperidinecarboxamide]
O=C(Nc1ccc2c(c1)CCN(C1CCC1)CC2)c1ccccc1-c1ccccc1.O=C(O)C(F)(F)F [Example 253, N-(3-Cyclobutyl-2,3,4,5-tetrahydro-1H-3-benzazepin-7-yl)-2-biphenylcarboxamide trifluoroacetate]
O=C(Nc1ccc2c(c1)CCN(C1CCC1)CC2)c1ccc(-c2ccccn2)cc1 [Example 8, N-(3-Cyclobutyl-2,3,4,5-tetrahydro-1H-3-benzazepin-7-yl)-4-(2-pyridinyl)benzamide]
N#Cc1nccnc1N1CCN(C(=O)Nc2ccc3c(c2)CCN(C2CCC2)CC3)CC1 [Example 165, 4-(3-Cyano-2-pyrazinyl)-N-(3-cyclobutyl-2,3,4,5-tetrahydro-1H-3-benzazepin-7-yl)-1-piperazinecarboxamide]
Cc1nc2ccncc2cc1C(=O)Nc1ccc2c(c1)CCN(C1CCC1)CC2 [Example 32, N-(3-Cyclobutyl-2,3,4,5-tetrahydro-1H-3-benzazepin-7-yl)-2-methyl-1,6-naphthyridine-3-carboxamide]
O=C(Nc1ccc2c(c1)CCN(C1CCC1)CC2)N1Cc2ccccc2C1 [Example 149, N-(3-Cyclobutyl-2,3,4,5-tetrahydro-1H-3-benzazepin-7-yl)-1,3-dihydro-2H-isoindole-2-carboxamide]
O=C(Nc1ccc2c(c1)CCN(C1CCC1)CC2)c1ccccc1Oc1ccccc1.O=C(O)C(F)(F)F [Example 247, N-(3-Cyclobutyl-2,3,4,5-tetrahydro-1H-3-benzazepin-7-yl)-2-(phenyloxy)benzamide trifluoroacetate]
O=C(Nc1ccc2c(c1)CCN(C1CCC1)CC2)c1cc2ccccc2o1.O=C(O)C(F)(F)F [Example 241, N-(3-Cyclobutyl-2,3,4,5-tetrahydro-1H-3-benzazepin-7-yl)-1-benzofuran-2-carboxamide trifluoroacetate]
Cc1c(C(=O)Nc2ccc3c(c2)CCN(C2CCC2)CC3)cnn1-c1ccc(F)cc1.Cl [Example 271, N-(3-Cyclobutyl-2,3,4,5-tetrahydro-1H-3-benzazepin-7-yl)-1-(4-fluorophenyl)-5-methyl-1H-pyrazole-4-carboxamide hydrochloride]
O=C(Nc1ccc2c(c1)CCN(C1CCC1)CC2)c1onc2ccccc12.O=C(O)C(F)(F)F [Example 189, N-(3-Cyclobutyl-2,3,4,5-tetrahydro-1H-3-benzazepin-7-yl)-2,1-benzisoxazole-3-carboxamide trifluoroacetate]
O=C(Nc1ccc2c(c1)CCN(C1CCC1)CC2)C1Cc2ccccc2O1.O=C(O)C(F)(F)F (centres unmarked) [Example 226, N-(3-Cyclobutyl-2,3,4,5-tetrahydro-1H-3-benzazepin-7-yl)-2,3-dihydro-1-benzofuran-2-carboxamide trifluoroacetate]
